Data as given in PubChem BioAssay AID1259300 (Sanger Institute, 2017).

- Purpose: 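siRNA screen of kinases and common colorectal cancer mutant genes, alone or with drugs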 (primary screen)
- Cell system: HCT15 colorectal cancer cells
- Reagents: siRNA pool against human genes
- Conditions: anchor drug or DMSO vehicle added 24 h after seeding: BYL719 1 µM, cetuximab 5 µg/ml, trametinib 10 nM; drug doses chosen to barely affect viability alone
- Detection: 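Replicate-mean viability relative to non-targeting pool control with robust z-score for knock-down without drug; per-drug synergy scores for BYL719 (1 µM), cetuximab (5 µg/ml), trametinib (10 nM)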
- Direction: viability z-score, siRNA alone: higher = more viable cells after knock-down
- Rule for the call: 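a knock-down without drug that drives the robust viability z-score under -3 is active, i.e. essential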
- Meaning of the calls: active = essential: knock-down alone lowers viability (z below -3); inactive = no strong viability loss with knock-down alone
The deposit covers 794 reagents; below is an unselected part. 18 of them (2.3%) count as active. 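Calls rest on knock-down alone, not drug synergy; depositor treated synergy scores above 0.15 as synergistic; drug doses alone had little viability effect.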 Not all columns of the deposit are shown. Not stated in the record: the amount of reagent, the time to read-out.

The opening 5 records as a preview:
no.	gene	viability z-score, siRNA alone	activity call
1	CDK14	0.0472	inactive
2	TP53BP1	-1.08	inactive
3	SYNCRIP	0.422	inactive
4	AXL	0.181	inactive
5	STK39	0.625	inactive

Results, repeating the preview:
no.	gene	viability z-score, siRNA alone	activity call
1	CDK14	0.0472	inactive
2	TP53BP1	-1.08	inactive
3	SYNCRIP	0.422	inactive
4	AXL	0.181	inactive
5	STK39	0.625	inactive
6	MAP3K21	0.565	inactive
7	GRK4	-0.663	inactive
8	CERK	0.625	inactive
9	NEK10	0.625	inactive
10	PIK3CG	-0.424	inactive
11	EPHB1	-0.0539	inactive
12	MKNK1	-0.399	inactive
13	FXR1	0.625	inactive
14	PKIA	-0.669	inactive
15	DGKG	0.625	inactive
16	STK32A	0.625	inactive
17	STRADA	-0.229	inactive
18	AURKA	-1.85	inactive
19	MAP3K11	0.0568	inactive
20	PIK3CB	-0.179	inactive
21	DAPK2	-1.77	inactive
22	PNKP	0.625	inactive
23	ROR2	0.625	inactive
24	PIK3C2G	0.625	inactive
25	SOS2	0.439	inactive
26	TCF7L2	-0.195	inactive
27	SYK	0.0696	inactive
28	GAK	0.625	inactive
29	TRIB3	0.625	inactive
30	PKN2	0.153	inactive
31	CDK10	0.625	inactive
32	STK16	0.625	inactive
33	MET	0.625	inactive
34	DSTYK	0.625	inactive
35	MATK	0.625	inactive
36	ADCK1	0.625	inactive
37	BUB1B	-4.21	active
38	CSNK2A1	0.564	inactive
39	FLT1	0.625	inactive
40	JAK1	0.625	inactive
41	RSKR	0.609	inactive
42	SRGAP3	0.625	inactive
43	PSTK	0.0703	inactive
44	CDKL5	0.625	inactive
45	GNE	0.625	inactive
46	UCK2	-1.65	inactive
47	EIF2AK3	0.625	inactive
48	MAP2K3	-0.212	inactive
49	ASPM	0.625	inactive
50	VRK2	0.347	inactive
